Measurements reported in article PMC3514286.
No constants are given. Whether binding was seen depends on the method and setting.

Amino acid sequences for entries named in this document (tags omitted). Residues count along the entry.
UniProt P0A6F9: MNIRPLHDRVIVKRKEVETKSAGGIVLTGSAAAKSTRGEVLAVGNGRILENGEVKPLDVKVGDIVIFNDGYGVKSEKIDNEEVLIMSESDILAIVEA
UniProt P10809, residues 27-573: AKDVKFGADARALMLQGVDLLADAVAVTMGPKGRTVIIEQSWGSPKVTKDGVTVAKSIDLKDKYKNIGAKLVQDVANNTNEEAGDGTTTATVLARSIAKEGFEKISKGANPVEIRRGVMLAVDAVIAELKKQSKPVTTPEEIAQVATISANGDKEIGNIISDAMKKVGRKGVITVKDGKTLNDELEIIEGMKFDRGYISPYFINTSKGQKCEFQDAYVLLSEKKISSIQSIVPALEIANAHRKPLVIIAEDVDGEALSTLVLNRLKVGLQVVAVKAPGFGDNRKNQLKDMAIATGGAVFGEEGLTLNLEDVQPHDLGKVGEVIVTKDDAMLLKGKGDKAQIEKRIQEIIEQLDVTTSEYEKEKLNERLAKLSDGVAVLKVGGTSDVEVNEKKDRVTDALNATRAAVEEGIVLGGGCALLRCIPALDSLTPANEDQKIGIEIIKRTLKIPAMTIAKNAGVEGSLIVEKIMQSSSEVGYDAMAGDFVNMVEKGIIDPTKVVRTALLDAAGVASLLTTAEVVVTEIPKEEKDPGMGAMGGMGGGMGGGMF

Biological target: GroES (E. coli) (UniProt P0A6F9)
Test: SPR; ProteOn XPR36; GroES or mHsp10 immobilised by amine coupling on a GLC chip; six concentrations of each mHsp60 variant injected; 20 mM Na-HEPES pH 7.5, 100 mM KCl, 10 mM MgCl2, 0.005% Tween, 2 mM ATP; apparent constants from equilibrium analysis; both purified

binding: no binding (tested: 10 µM)
Substance: human mitochondrial Hsp60, wild type (from UniProt P10809 27-573)
